Article PMC12078616
The exact form of at least one protein or probe is not confirmed. For part of these data: The comparison behind a weaker result is the experiment's own reference, which may not be listed here. For part of these data: At least one verdict rests on a figure or table, not on a statement of the authors.

Amino acid sequences for entries named in this document (tags omitted).
UniProt P12004, whole entry: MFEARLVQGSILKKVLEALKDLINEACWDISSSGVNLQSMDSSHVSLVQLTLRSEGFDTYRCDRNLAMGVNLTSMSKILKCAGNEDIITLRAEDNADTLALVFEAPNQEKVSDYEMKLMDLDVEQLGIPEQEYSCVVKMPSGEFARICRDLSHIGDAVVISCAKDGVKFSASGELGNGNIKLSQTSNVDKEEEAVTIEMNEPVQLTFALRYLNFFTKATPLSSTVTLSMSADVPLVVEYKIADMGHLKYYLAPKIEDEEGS

Key:
[1] = system: PCNA D232A + trFAN1 R507H; experiment: MST; conditions: 100 nM trFAN1, MST: 25 mM HEPES pH 7.5, 125 mM KCl, 10 mM CaCl2, 5% glycerol, 1 mM TCEP, 0.005% Tween-20, 0.1% BSA, 10 nM Cy5-DNA, 25 °C, recombinant protein; for binding result: label: 3'-Cy5 on strand 2
[2] = system: PCNA WT + FAN1 WT; experiment: MST; conditions: MST: 25 mM HEPES pH 7.5, 125 mM KCl, 10 mM CaCl2, 5% glycerol, 1 mM TCEP, 0.005% Tween-20, 0.1% BSA, 10 nM Cy5-DNA, 25 °C, recombinant protein; for binding result: 100 nM FAN1, Kd within 4-fold of homoduplex, label: 3'-Cy5 on strand 2
[3] = system: PCNA D232A + trFAN1 R507H; experiment: SPR; conditions: 100 nM trFAN1; recombinant protein
[4] = system: PCNA WT + FAN1 WT; experiment: SPR; conditions: 100 nM FAN1, Kd within 4-fold of homoduplex; recombinant protein
[5] = system: PCNA D232A + FAN1 R507H; experiment: SPR; conditions: PCNA titrated, 100 nM FAN1; recombinant protein
[6] = system: PCNA D232A + FAN1 WT; experiment: SPR; conditions: PCNA titrated, 100 nM FAN1; recombinant protein
[7] = molecular target: PCNA WT (human) (UniProt P12004); experiment: SPR; conditions: no FAN1; recombinant protein; protein details: His tag removed by PreScission
[8] = system: PCNA D232A + FAN1 R507H; experiment: MST; conditions: PCNA titrated, 100 nM FAN1; MST: 25 mM HEPES pH 7.5, 125 mM KCl, 10 mM CaCl2, 5% glycerol, 1 mM TCEP, 0.005% Tween-20, 0.1% BSA, 10 nM Cy5-DNA, 25 °C; recombinant protein; label: 3'-Cy5 on strand 1; letters put together from the description
[9] = system: PCNA D232A + FAN1 WT; experiment: MST; conditions: PCNA titrated, 100 nM FAN1; MST: 25 mM HEPES pH 7.5, 125 mM KCl, 10 mM CaCl2, 5% glycerol, 1 mM TCEP, 0.005% Tween-20, 0.1% BSA, 10 nM Cy5-DNA, 25 °C; recombinant protein; label: 3'-Cy5 on strand 1; letters put together from the description
[10] = molecular target: PCNA WT (human) (UniProt P12004); experiment: MST; conditions: no FAN1; MST: 25 mM HEPES pH 7.5, 125 mM KCl, 10 mM CaCl2, 5% glycerol, 1 mM TCEP, 0.005% Tween-20, 0.1% BSA, 10 nM Cy5-DNA, 25 °C; recombinant protein; protein details: His tag removed by PreScission; label: 3'-Cy5 on strand 1; letters put together from the description
[11] = system: PCNA WT + FAN1 R507H; experiment: MST; conditions: PCNA titrated, 100 nM FAN1; MST: 25 mM HEPES pH 7.5, 125 mM KCl, 10 mM CaCl2, 5% glycerol, 1 mM TCEP, 0.005% Tween-20, 0.1% BSA, 10 nM Cy5-DNA, 25 °C; recombinant protein; label: 3'-Cy5 on strand 1; letters put together from the description

“CTGAAGCTTAGCTTAGGATCATCGAGGATCCAGCAGAGCTCGGTGCAATTCAGCGGTACCCAATTC / GAATTGGGTACCGCTGAATTGCACCGAGCTGATCCTCGATGATCCTAAGCTAAGCTTCAG [61 bp (CAG)2 extrahelical extrusion]”: binds more weakly [1]; binds [2].
“CCGCTTTCTTCCCTTCCTTTGTGCACACGTTCCGAGATATCCTAGCAAGTGATCGTCAGCAGCAGCAGCTATGTAGCTCAAGAGTTCGACTTTCCCCGCTAAGCTCTACATCCGAGGCTCGCCGA / TCGGCGAGCCTCGGATGTAGAGCTTAGCGGGGAAAGTCGAACTCTTGAGCTACATAGTACGATCACTTGCTAGGATATCTCGGAACGTGTGCACAAAGGAAGGGAAGAAAGCGG [113 bp (CAG)4 extrahelical extrusion]”: binds more weakly [3]; binds [4].
“CCGCTTTCTTCCCTTCCTTTGTGCACACGTTCCGAGATATCCTAGCAAGTGATCGTCAGCAGCAGCTATGTAGCTCAAGAGTTCGACTTTCCCCGCTAAGCTCTACATCCGAGGCTCGCCGA / TCGGCGAGCCTCGGATGTAGAGCTTAGCGGGGAAAGTCGAACTCTTGAGCTACATAGTACGATCACTTGCTAGGATATCTCGGAACGTGTGCACAAAGGAAGGGAAGAAAGCGG [113 bp (CAG)3 extrahelical extrusion]”: binds more weakly [3]; binds [4].
With “CCGCTTTCTTCCCTTCCTTTGTGCACACGTTCCGAGATATCCTAGCAAGTGATCGTCTATGTAGCTCAAGAGTTCGACTTTCCCCGCTAAGCTCTACATCCGAGGCTCGCCGA / TCGGCGAGCCTCGGATGTAGAGCTTAGCGGGGAAAGTCGAACTCTTGAGCTACATAGTACGATCACTTGCTAGGATATCTCGGAACGTGTGCACAAAGGAAGGGAAGAAAGCGG [113 bp homoduplex]” the binding result [5] was “binds more weakly”, the Kd [6] was 3.7 µM and the Kd [7] was > 10 µM.
“CTGAAGCTTAGCTTAGGATCATCGAGGATCCAGCAGCAGCAGAGCTCGGTGCAATTCAGCGGTACCCAATTC / GAATTGGGTACCGCTGAATTGCACCGAGCTGATCCTCGATGATCCTAAGCTAAGCTTCAG [61 bp (CAG)4 extrahelical extrusion]”: binds more weakly [1]; binds [2].
“CCGCTTTCTTCCCTTCCTTTGTGCACACGTTCCGAGATATCCTAGCAAGTGATCGTCAGCAGCTATGTAGCTCAAGAGTTCGACTTTCCCCGCTAAGCTCTACATCCGAGGCTCGCCGA / TCGGCGAGCCTCGGATGTAGAGCTTAGCGGGGAAAGTCGAACTCTTGAGCTACATAGTACGATCACTTGCTAGGATATCTCGGAACGTGTGCACAAAGGAAGGGAAGAAAGCGG [113 bp (CAG)2 extrahelical extrusion]”: binds more weakly [3].
“CCGCTTTCTTCCCTTCCTTTGTGCACACGTTCCGAGATATCCTAGCAAGTGATCGTCAGCTATGTAGCTCAAGAGTTCGACTTTCCCCGCTAAGCTCTACATCCGAGGCTCGCCGA / TCGGCGAGCCTCGGATGTAGAGCTTAGCGGGGAAAGTCGAACTCTTGAGCTACATAGTACGATCACTTGCTAGGATATCTCGGAACGTGTGCACAAAGGAAGGGAAGAAAGCGG [113 bp (CAG)1 extrahelical extrusion]”: binds more weakly [3]; binds [4].
Sequence “GAATTGGGTACCGCTGAATTGCACCGAGCTGATCCTCGATGATCCTAAGCTAAGCTTCAG (double strand) [61 bp homoduplex]” has a Kd [8] of 5.1 µM, a Kd [9] of 1.3 µM and a Kd ([1]; PCNA titrated, label: 3'-Cy5 on strand 1, letters put together from the description) of 15.8 µM. For the same sequence, the Kd [10] was > 10 µM, the Kd [11] was 2.3 µM and the Kd ([2]; PCNA titrated, 100 nM FAN1, label: 3'-Cy5 on strand 1, letters put together from the description) was 0.5 µM.
“CTGAAGCTTAGCTTAGGATCATCGAGGATCCAGCAGCAGAGCTCGGTGCAATTCAGCGGTACCCAATTC / GAATTGGGTACCGCTGAATTGCACCGAGCTGATCCTCGATGATCCTAAGCTAAGCTTCAG [61 bp (CAG)3 extrahelical extrusion]”: binds more weakly [1]; binds [2].
“CTGAAGCTTAGCTTAGGATCATCGAGGATCCAGAGCTCGGTGCAATTCAGCGGTACCCAATTC / GAATTGGGTACCGCTGAATTGCACCGAGCTGATCCTCGATGATCCTAAGCTAAGCTTCAG [61 bp (CAG)1 extrahelical extrusion]”: binds more weakly [1]; binds [2].
